# Results from the supplement of paper PMC8728848.
# This is one part of the list.
# B1: Vd7LysM (Verticillium dahliae) (protein)
# chain: RRGPEPKYPPAAGTSSYCSYWVDYEGDKSCSRVLEDNVVVLKDFARWNPTVGADCSGIKAGNSYCVEAFGEPEPIEVTTTTRAATTTTQPTATTTTFANGIATPQPTQSGMVTNCNKFHWIAEGVSCSQVISFQKITLADFVKWNPSVKSDCSGMWAGVNVCVGVVGSSTDTAKPTTTAPSNGVVTPQPTQPSMVTNCNKFHWIAKGVTCQQVISYQKISLADFVKWNPSVLSDCSGMWAEVQVCVGVIGSTPTTLATTTTTAGNGVSTPLPTQPGMVTNCAKFHWVAKGVTCNQIYSFQKITLEQFVSYNPTVKSDCSGMQAEVQVCVGLIAGTTPTTTRPPTTTAPGNGVSTPQPTQPGMVTNCAKFHWVAKGVTCNQIYSFQKITLEQFVSFNPTVKSDCTGMQAEVNVCVGLIGGNPTPTQTGNGIATPTPIQPGMVSNCKKFHWIAQGVTCQQVISFQKITLADFVKWNTGVGSDCRTMWAETNVCVGV
# Key:
# Test in all cases: glycan array binding signal (z-score within array); higher = stronger binding
# Settings in all cases: glycan notation: IUPAC condensed, linker removed
# Neu5Ac(a2-8)Neu5Ac = target: Neu5Ac(a2-8)Neu5Ac
# How it was run: (§1)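 Glycan array data were curated from 3228 arrays in the Consortium for Functional Glycomics database and kept only where the protein sequence was available. Glycan names were converted to IUPAC-condensed notation, and columns mapping to the same glycan were averaged. The binding signal is a within-array Z-score, averaged across arrays of the same protein sequence at different concentrations or buffers and across linkers. Negative Z-scores can be read as non-binding.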
# [1] = target: Neu5Ac(a2-8)Neu5Ac(a2-3)Gal(b1-3)GalNAc(b1-4)[Neu5Ac(a2-3)]Gal(b1-4)Glc
# How it was run: as §1
# [2] = target: Neu5Ac(a2-8)Neu5Ac(a2-3)Gal(b1-3)GalNAc(b1-4)[Neu5Ac(a2-8)Neu5Ac(a2-3)]Gal(b1-4)Glc
# How it was run: as §1
# [3] = target: Neu5Ac(a2-8)Neu5Ac(a2-3)Gal(b1-4)Glc
# How it was run: as §1
# [4] = target: Neu5Ac(a2-8)Neu5Ac(a2-3)Gal(b1-4)GlcNAc
# How it was run: as §1
# [5] = target: Neu5Ac(a2-8)Neu5Ac(a2-3)[Gal(b1-3)GalNAc(b1-4)]Gal(b1-4)Glc
# How it was run: as §1
# [6] = target: Neu5Ac(a2-8)Neu5Ac(a2-3)[GalNAc(b1-4)]Gal(b1-4)Glc
# How it was run: as §1
# [7] = target: Neu5Ac(a2-8)Neu5Ac(a2-8)Neu5Ac
# How it was run: as §1
# [8] = target: Neu5Ac(a2-8)Neu5Ac(a2-8)Neu5Ac(a2-3)Gal(b1-4)Glc
# How it was run: as §1
# [9] = target: Neu5Ac(a2-8)Neu5Ac(a2-8)Neu5Ac(a2-3)[Gal(b1-3)GalNAc(b1-4)]Gal(b1-4)Glc
# How it was run: as §1
# [10] = target: Neu5Ac(a2-8)Neu5Ac(a2-8)Neu5Ac(a2-3)[GalNAc(b1-4)]Gal(b1-4)Glc
# How it was run: as §1
# [11] = target: Neu5Ac(a2-8)Neu5Ac(a2-8)Neu5Ac(a2-8)Neu5Ac(a2-3)[GalNAc(b1-4)]Gal(b1-4)Glc
# How it was run: as §1
# [12] = target: Neu5Ac(a2-8)Neu5Gc(a2-3)Gal(b1-4)GlcNAc
# How it was run: as §1
# [13] = target: Neu5Ac(b2-6)Gal(b1-4)GlcNAc
# How it was run: as §1
# Neu5Ac(b2-6)GalNAc = target: Neu5Ac(b2-6)GalNAc
# How it was run: as §1
# [14] = target: Neu5Ac9Ac(a2-3)Gal(b1-3)GlcNAc
# How it was run: as §1
# [15] = target: Neu5Ac9Ac(a2-3)Gal(b1-4)GlcNAc
# How it was run: as §1
# [16] = target: Neu5Ac9Ac(a2-6)Gal(b1-4)GlcNAc
# How it was run: as §1
# [17] = target: Neu5Gc(a2-3)Gal(b1-3)GlcNAc
# How it was run: as §1
# [18] = target: Neu5Gc(a2-3)Gal(b1-3)[Fuc(a1-4)]GlcNAc
# How it was run: as §1
# Neu5Gc(a2-3)Gal(b1-4)Glc = target: Neu5Gc(a2-3)Gal(b1-4)Glc
# How it was run: as §1
# [19] = target: Neu5Gc(a2-3)Gal(b1-4)GlcNAc
# How it was run: as §1
# [20] = target: Neu5Gc(a2-3)Gal(b1-4)GlcNAc(b1-3)Gal(b1-4)GlcNAc(b1-2)Man(a1-3)[Neu5Gc(a2-3)Gal(b1-4)GlcNAc(b1-3)Gal(b1-4)GlcNAc(b1-2)Man(a1-6)]Man(b1-4)GlcNAc(b1-4)GlcNAc
# How it was run: as §1
# [21] = target: Neu5Gc(a2-3)Gal(b1-4)[Fuc(a1-3)]GlcNAc
# How it was run: as §1
# [22] = target: Neu5Gc(a2-6)Gal(b1-4)GlcNAc
# How it was run: as §1
# Neu5Gc(a2-6)GalNAc = target: Neu5Gc(a2-6)GalNAc
# How it was run: as §1
# [23] = target: Neu5Gc(a2-8)Neu5Ac(a2-3)Gal(b1-4)GlcNAc
# How it was run: as §1
# [24] = target: Neu5Gc(a2-8)Neu5Gc(a2-3)Gal(b1-4)GlcNAc
# How it was run: as §1
# [25] = target: Neu5Gc(a2-8)Neu5Gc(a2-3)Gal(b1-4)GlcNAc(b1-3)Gal(b1-4)GlcNAc
# How it was run: as §1
# [26] = target: Neu5Gc(a2-8)Neu5Gc(a2-6)Gal(b1-4)GlcNAc
# How it was run: as §1
# [27] = target: Neu5Gc(b2-6)Gal(b1-4)GlcNAc
# How it was run: as §1
binder,measurement,setting,value
B1,glycan array binding signal (z-score),Neu5Ac(a2-8)Neu5Ac,-0.418
same,glycan array binding signal (z-score),[1],-2.4
same,glycan array binding signal (z-score),[2],0.555
same,glycan array binding signal (z-score),[3],0.175
same,glycan array binding signal (z-score),[4],0.115
same,glycan array binding signal (z-score),[5],-0.882
same,glycan array binding signal (z-score),[6],1.03
same,glycan array binding signal (z-score),[7],-0.119
same,glycan array binding signal (z-score),[8],0.063
same,glycan array binding signal (z-score),[9],0.545
same,glycan array binding signal (z-score),[10],-0.713
same,glycan array binding signal (z-score),[11],1.24
same,glycan array binding signal (z-score),[12],1.69
same,glycan array binding signal (z-score),[13],-1.15
same,glycan array binding signal (z-score),Neu5Ac(b2-6)GalNAc,-0.577
same,glycan array binding signal (z-score),[14],-0.552
same,glycan array binding signal (z-score),[15],-0.139
same,glycan array binding signal (z-score),[16],2.97
same,glycan array binding signal (z-score),[17],0.641
same,glycan array binding signal (z-score),[18],-1.44
same,glycan array binding signal (z-score),Neu5Gc(a2-3)Gal(b1-4)Glc,0.212
same,glycan array binding signal (z-score),[19],0.306
same,glycan array binding signal (z-score),[20],-1.03
same,glycan array binding signal (z-score),[21],0.377
same,glycan array binding signal (z-score),[22],0.889
same,glycan array binding signal (z-score),Neu5Gc(a2-6)GalNAc,-0.119
same,glycan array binding signal (z-score),[23],-0.354
same,glycan array binding signal (z-score),[24],0.075
same,glycan array binding signal (z-score),[25],-0.709
same,glycan array binding signal (z-score),[26],-1.51
same,glycan array binding signal (z-score),[27],-0.471

# 2 neighbouring entries from above:
binder,measurement,setting,value
B1,glycan array binding signal (z-score),Neu5Ac(b2-6)GalNAc,-0.577
same,glycan array binding signal (z-score),[14],-0.552
